Source: paper PMC5414174, “DNA replication licensing factor Cdc6 and Plk4 kinase antagonistically regulate centrosome duplication via Sas-6” (Nature Communications, 2017)
Positions count from the first letter of the chain named. These are yes or no findings as the source states them, for the method shown. In cells and extracts the contact can be indirect. Some binding calls cover weakened binding; strength is not graded here. For some of these results: Sequences can lack the tags named with a protein.

Key:
[1] = biological target: T1, endogenous Sas-6 (human (endogenous in HEK293)) (UniProt Q6UVJ0); experiment: co-IP; endogenous proteins, HEK293 total cell extract, IP with Cdc6 antibody (reciprocal with Sas-6 as bait per the text); in Fig. 7a HEK 293 T cells with control or Plk4 siRNA
T1 sequence: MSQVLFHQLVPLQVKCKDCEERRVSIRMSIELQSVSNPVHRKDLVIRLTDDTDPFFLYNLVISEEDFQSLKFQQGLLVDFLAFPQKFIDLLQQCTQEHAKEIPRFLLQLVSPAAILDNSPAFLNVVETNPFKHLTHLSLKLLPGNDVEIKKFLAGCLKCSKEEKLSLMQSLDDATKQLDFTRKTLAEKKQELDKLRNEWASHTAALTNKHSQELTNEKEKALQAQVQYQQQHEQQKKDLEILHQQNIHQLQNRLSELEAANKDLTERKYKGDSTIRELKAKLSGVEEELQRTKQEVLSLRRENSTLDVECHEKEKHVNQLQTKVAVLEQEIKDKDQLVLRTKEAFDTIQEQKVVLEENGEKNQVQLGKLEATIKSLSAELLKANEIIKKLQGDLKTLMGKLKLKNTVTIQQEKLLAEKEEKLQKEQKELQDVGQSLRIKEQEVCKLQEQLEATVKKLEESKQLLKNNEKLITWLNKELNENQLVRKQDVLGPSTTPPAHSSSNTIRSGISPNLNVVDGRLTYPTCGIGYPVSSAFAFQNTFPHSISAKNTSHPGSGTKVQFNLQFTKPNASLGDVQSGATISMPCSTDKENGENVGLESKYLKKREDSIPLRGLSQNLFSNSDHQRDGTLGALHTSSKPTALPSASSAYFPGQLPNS

[2] = biological target: T2, GFP-tagged Cdc6 2A mutant (human) (UniProt Q99741); experiment: co-IP; co-transfected HEK293 cells, total cell extract, IP with GFP antibody on protein A Sepharose, 20 mM Tris, 125 mM NaCl, 0.5% NP-40, pH 7.5, 2 h at 4 °C; western blot with Myc and GFP antibodies; in Fig. 4d cells released into S phase
T2 sequence: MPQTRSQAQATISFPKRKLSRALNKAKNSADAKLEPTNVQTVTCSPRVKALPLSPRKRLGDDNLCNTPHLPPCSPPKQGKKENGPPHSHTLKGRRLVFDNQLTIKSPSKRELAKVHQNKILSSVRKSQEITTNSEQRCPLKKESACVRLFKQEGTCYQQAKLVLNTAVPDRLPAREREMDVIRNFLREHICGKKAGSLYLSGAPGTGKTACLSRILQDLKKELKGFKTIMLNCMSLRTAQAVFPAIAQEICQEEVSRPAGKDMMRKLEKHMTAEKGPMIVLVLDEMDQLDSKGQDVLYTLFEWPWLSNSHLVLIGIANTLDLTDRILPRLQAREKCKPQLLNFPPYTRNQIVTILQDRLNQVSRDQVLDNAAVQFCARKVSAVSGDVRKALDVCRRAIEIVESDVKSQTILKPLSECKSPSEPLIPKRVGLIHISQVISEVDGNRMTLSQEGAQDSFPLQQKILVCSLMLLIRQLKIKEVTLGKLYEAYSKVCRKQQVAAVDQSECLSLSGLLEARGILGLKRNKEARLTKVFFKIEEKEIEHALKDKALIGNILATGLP

[3] = biological target: T3, GFP-tagged Cdc6 WT (human) (UniProt Q99741); experiment: as above
T3 sequence: T2 sequence with A30S, A527T

[4] = biological target: T4, His-tagged Cdc6 (in vitro transcribed and translated) (human) (UniProt Q99741); experiment: co-IP; in vitro: in vitro translated His-Cdc6 (or mutant) and His-Sas-6 incubated with purified GST or GST-Plk4 in kinase reaction buffer (200 μM ATP, pH 7.5) 30 min at 30 °C, then IP with Cdc6 antibody in immunoprecipitation buffer 2 h at 4 °C; blots with Cdc6 and Sas-6 antibodies
T4 sequence: T2 sequence with A30S, A527T

[5] = biological target: T5, His-tagged Cdc6 2A mutant (in vitro transcribed and translated) (human) (UniProt Q99741); experiment: as above
T5 sequence: T2 sequence

[6] = biological target: T6, HA-tagged Sas-6 (in vitro transcribed and translated) (human) (UniProt Q6UVJ0); experiment: co-IP; same experiment as a9: purified His-Cdc6 2A added to in vitro translated HA-Sas-6 and HA-STIL with GST-Plk4; read-out is STIL bound to immunoprecipitated Sas-6; only the binder purified
T6 sequence: T1 sequence

[7] = biological target: T7, endogenous Cdc6 (human (endogenous in HEK293)) (UniProt Q99741); experiment: co-IP; endogenous proteins, HEK293 total cell extract, IP with Cdc6 antibody (reciprocal with Sas-6 as bait per the text); in Fig. 7a HEK 293 T cells with control or Plk4 siRNA
T7 sequence: T2 sequence with A30S, A527T

B1: endogenous Cdc6 (protein, UniProt Q99741 1-560)
chain: T2 sequence with A30S, A527T
binding [1]: binds

B2: Myc-tagged Sas-6 (protein, UniProt Q6UVJ0 1-657)
chain: T1 sequence
binding [2]: binds | binding [3]: binds

B3: His-tagged Sas-6 (in vitro transcribed and translated) (protein, UniProt Q6UVJ0 1-657)
chain: T1 sequence
binding [4]: binds | binding [5]: binds

B4: His-tagged Cdc6 2A mutant (purified) (protein, UniProt Q99741 1-560)
chain: T2 sequence
binding [6]: binds

B5: endogenous STIL (protein, UniProt Q15468 1-1287)
chain: MEPIYPFARPQMNTRFPSSRMVPFHFPPSKCALWNPTPTGDFIYLHLSYYRNPKLVVTEKTIRLAYRHAKQNKKNSSCFLLGSLTADEDEEGVTLTVDRFDPGREVPECLEITPTASLPGDFLIPCKVHTQELCSREMIVHSVDDFSSALKALQCHICSKDSLDCGKLLSLRVHITSRESLDSVEFDLHWAAVTLANNFKCTPVKPIPIIPTALARNLSSNLNISQVQGTYKYGYLTMDETRKLLLLLESDPKVYSLPLVGIWLSGITHIYSPQVWACCLRYIFNSSVQERVFSESGNFIIVLYSMTHKEPEFYECFPCDGKIPDFRFQLLTSKETLHLFKNVEPPDKNPIRCELSAESQNAETEFFSKASKNFSIKRSSQKLSSGKMPIHDHDSGVEDEDFSPRPIPSPHPVSQKISKIQPSVPELSLVLDGNFIESNPLPTPLEMVNNENPPLINHLEHLKPLQPQLYDEKHSPEVEAGEPSLRGIPNQLNQDKPALLRHCKVRQPPAYKKGNPHTRNSIKPSSHNGPSHDIFEKLQTVSAGNVQNEEYPIRPSTLNSRQSSLAPQSQPHDFVFSPHNSGRPMELQIPTPPLPSYCSTNVCRCCQHHSHIQYSPLNSWQGANTVGSIQDVQSEALQKHSLFHPSGCPALYCNAFCSSSSPIALRPQGDMGSCSPHSNIEPSPVARPPSHMDLCNPQPCTVCMHTPKTESDNGMMGLSPDAYRFLTEQDRQLRLLQAQIQRLLEAQSLMPCSPKTTAVEDTVQAGRQMELVSVEAQSSPGLHMRKGVSIAVSTGASLFWNAAGEDQEPDSQMKQDDTKISSEDMNFSVDINNEVTSLPGSASSLKAVDIPSFEESNIAVEEEFNQPLSVSNSSLVVRKEPDVPVFFPSGQLAESVSMCLQTGPTGGASNNSETSEEPKIEHVMQPLLHQPSDNQKIYQDLLGQVNHLLNSSSKETEQPSTKAVIISHECTRTQNVYHTKKKTHHSRLVDKDCVLNATLKQLRSLGVKIDSPTKVKKNAHNVDHASVLACISPEAVISGLNCMSFANVGMSGLSPNGVDLSMEANAIALKYLNENQLSQLSVTRSNQNNCDPFSLLHINTDRSTVGLSLISPNNMSFATKKYMKRYGLLQSSDNSEDEEEPPDNADSKSEYLLNQNLRSIPEQLGGQKEPSKNDHEIINCSNCESVGTNADTPVLRNITNEVLQTKAKQQLTEKPAFLVKNLKPSPAVNLRTGKAEFTQHPEKENEGDITIFPESLQPSETLKQMNSMNSVGTFLDVKRLRQLPKLF
binding [7]: no binding
